# PubChem BioAssay (Tox21)
# By UniProt entry, the sequences of proteins in these tests, tags left out.
# UniProt P14416, whole entry, looked up: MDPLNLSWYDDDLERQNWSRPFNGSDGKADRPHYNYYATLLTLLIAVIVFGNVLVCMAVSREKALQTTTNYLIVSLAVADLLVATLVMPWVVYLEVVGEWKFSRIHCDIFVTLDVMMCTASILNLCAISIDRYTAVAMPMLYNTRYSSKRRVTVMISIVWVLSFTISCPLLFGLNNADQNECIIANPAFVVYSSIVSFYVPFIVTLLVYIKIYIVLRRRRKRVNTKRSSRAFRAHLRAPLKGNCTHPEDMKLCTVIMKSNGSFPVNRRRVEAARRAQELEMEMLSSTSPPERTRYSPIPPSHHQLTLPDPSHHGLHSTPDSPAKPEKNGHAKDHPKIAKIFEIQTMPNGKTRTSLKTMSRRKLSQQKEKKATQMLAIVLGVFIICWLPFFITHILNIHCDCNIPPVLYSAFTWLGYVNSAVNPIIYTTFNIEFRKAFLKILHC
# Values joined by “and” are separate entries in the source; they are usually repeats but may differ in a detail not shown here. Equal entries are not always repeated. Inconclusive results, whose numbers are uncertain, are shown with a selection of clear calls. For part of these data: A potency beside an inconclusive call is a rough fit, not a confirmed value. Active and inactive are the calls of the source. Unless noted, the call rests on the fitted dose curve.
# Key:
# [1] = cAMP Responsive Elements (CRE) small molecule antagonists, cell-based qHTS assay (AID 1963591; active means well fitted inhibition curve with a large enough effect in the signal ratio in the repeat runs, not every such curve was filed as active; inconclusive means weak or mixed curves, or effect the other way; the % refers to the signal ratio; further: potency means the concentration at half of the fitted maximal effect); conditions: CRE-bla HEK293T, beta-lactamase FRET ratio; activity change, negative = inhibition: at 92.4 µM (top of the series) unless noted
# Outline: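 qHTS in CRE-bla HEK 293T cells: compound in DMSO, then 0.25 uM NKH477 (final), 3 h at 37 °C/5% CO2; beta-lactamase FRET read-out after 2 h substrate incubation.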
# [2] = molecular target: Beta-2 adrenergic receptor (Homo sapiens) (UniProt P07550); experiment: Adrenergic beta2 receptor (ADRB2) small molecule agonists, cell-based qHTS assay (AID 1963593); conditions: CHO-ADRB2 cells, cAMP HTRF, 30 min; further: potency means the concentration at half of the fitted maximal effect;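 on activation: CHO cells stably overexpressing human ADRB2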
# Outline: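 CHO cells stably over-expressing ADRB2 were plated overnight at 37C, then dosed with compounds plus a stimulation mix containing 100uM IBMX and 25uM Ro-20-1724 for 0.5hr at room temperature. cAMP was measured by HTRF competition, 1hr.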
# [3] = molecular target: D(2) dopamine receptor (Homo sapiens) (UniProt P14416); experiment: Dopamine D2 receptor (DRD2) small molecule agonists, cell-based qHTS assay (AID 1963594); conditions: HEK293-DRD2 cAMP HTRF, agonist mode, 30 min; activation: at 92.4 µM (top of the series) unless noted; further: nearly all actives have a fitted effect of over 35% in size; further: potency means the concentration at half of the fitted maximal effect
# Outline: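 HEK293 cells stably expressing human DRD2, pre-treated with PDE inhibitor Ro20-1724 (0.1 mM final) and compound 10 min at room temperature, then stimulated with NKH477 (200nM […]) for 30 min. cAMP read by HTRF (665/620 nm).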
# [4] = molecular target: D(2) dopamine receptor (Homo sapiens) (UniProt P14416); experiment: Dopamine D2 receptor (DRD2) small molecule antagonists, cell-based qHTS assay (AID 1963595; active means well fitted inhibition curve with a large enough effect in the signal ratio in the repeat runs, with a control signal flat; inconclusive means weak or mixed curves, or effect the other way; the % refers to the signal ratio); conditions: HEK293-DRD2 cAMP HTRF antagonist mode; activity change, negative = inhibition: at 92.4 µM (top of the series) unless noted
# Outline: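 Antagonist mode in DRD2-HEK293 cells: after compound addition with 0.1 mM Ro20-1724, cells received quinpirole (12 nM) and NKH477 (200 nM) for 30 min at room temperature; HTRF cAMP read after 1 h detection.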
# [5] = molecular target: Beta-2 adrenergic receptor (Homo sapiens) (UniProt P07550); experiment: Adrenergic beta2 receptor (ADRB2) small molecule antagonists, cell-based qHTS assay (AID 1963592); conditions: CHO-ADRB2 cells, isoproterenol-stimulated cAMP HTRF ratio, 0.5 h; activity change, negative = inhibition: at 92.4 µM (top of the series) unless noted; further: nearly all actives have a fitted effect of over 50% in size
# Outline: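 Cells (CHO, stable ADRB2 overexpression) incubated 18-20hr at 37C; compounds added from DMSO; agonist mix (1nM isoproterenol, 100uM IBMX, 25uM Ro-20-1724) added; 0.5hr RT; d2-cAMP and anti-cAMP-cryptate added; 1hr RT; 665/615 nm read.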
# [6] = activation: at 92.4 µM (top of the series) unless noted
# On the % scale 0 is the no-effect control and ±100 the full control effect.
smiles,measurement,setting,value
CCOC(=O)C(C#N)=C(c1ccccc1)c1ccccc1,Potency,[1],"inconclusive: 21.7 µM [activator, partial curve] and inconclusive: 15 µM [activator]"
same,activation,[2]; [6],inconclusive: 3.65%
same,activation,[2]; at 42.5 µM (top of the series),inactive: 8.2%
CC[C@H](C)C(=O)O[C@H]1C[C@H](O)C=C2C=C[C@H](C)[C@H](CC[C@@H](O)C[C@@H](O)CC(=O)O)[C@H]21,"activity change, negative = inhibition",[1],inconclusive: 22.1%
same,Potency,[2]; [6],inactive
same,Potency,[3],active: 61.1 µM
CCN1CCc2nc(N)oc2CC1,Potency,[1],inactive
same,Potency,[2]; [6],"inconclusive: 33.5 µM [inhibitor, single point]"
same,Potency,[3],active: 26.6 µM
O=C(Cl)c1cccc(C(=O)Cl)c1,"activity change, negative = inhibition",[1],inconclusive: 0.0055%
same,Potency,[2]; [6],inconclusive: 9.69 µM [inhibitor]
same,activation,[2]; [6],inconclusive: 6.33%
Cc1cc(NS(=O)(=O)c2ccc(N)cc2)no1,Potency,[1],inactive
same,Potency,[2]; [6],"inconclusive: 17.1 µM [inhibitor, partial curve, poor fit]"
same,activation,[2]; [6],inconclusive: 12.8% [at 42.5 µM]
CCCCCCCCCCC=CC1CC(=O)OC1=O (stereo not given),Potency,[1],inactive
same,activation,[2]; [6],inconclusive: 0.407% and inconclusive: 7.86%
same,Potency,[3],inactive
CC(C)(O)c1ccc(C(C)(C)O)cc1,Potency,[1],inactive
same,activation,[2]; [6],inconclusive: -4%
same,Potency,[3],"inconclusive: 1.26 µM [falling, full curve, poor fit]"
CC(=O)OCCCc1ccccc1,Potency,[1],inactive
same,Potency,[2]; [6],inactive
same,Potency,[3],"inconclusive: 2.43 µM [falling, single point]"
N=C(N)c1ccc(OCCCCCOc2ccc(C(=N)N)cc2)cc1,Potency,[1],inactive
same,Potency,[2]; [6],"inconclusive: 0.0015 µM [inhibitor, full curve, poor fit]"
same,activation,[2]; [6],inconclusive: 5.11%
O=C(O)c1cccc([N+](=O)[O-])c1,"activity change, negative = inhibition",[1],inconclusive: 13.9%
same,Potency,[2]; [6],inconclusive: 1.36 µM [inhibitor]
same,activation,[2]; [6],inconclusive: 11.8%
C=C(C)C(=O)OCC(O)CO (stereo not given),"activity change, negative = inhibition",[1],inconclusive: 0.876% [at 42.4 µM]
same,Potency,[2]; [6],inactive
NC(=O)N1c2ccccc2CC(=O)c2ccccc21,Potency,[1],inactive
same,activation,[2]; [6],inconclusive: 1.73% [at 42.5 µM]
same,Potency,[3],inconclusive: 31.6 µM
CCN(CC)C(=O)c1cccc(C)c1,"activity change, negative = inhibition",[1],inconclusive: 22.8%
same,activation,[2]; at 42.5 µM (top of the series),inconclusive: -8.04%
same,activation,[2]; at 92.4 µM (top of the series),inconclusive: -76.6%
C=CC(C)(C)O,"activity change, negative = inhibition",[1],inconclusive: 1.69%
same,activation,[2]; [6],inconclusive: -0.506%
CC(C)(C#N)c1cc(Cn2cncn2)cc(C(C)(C)C#N)c1,"activity change, negative = inhibition",[1],inconclusive: 19% [at 42.4 µM]
same,activation,[2]; [6],inconclusive: -0.43% [at 42.5 µM]
same,activation,[2]; at 42.5 µM (top of the series),inactive: 18.5%
COc1nc(N)nc2nc[nH]c12,Potency,[1],inactive
same,Potency,[2]; [6],inactive
same,Potency,[3],inactive
CC(=O)OCC(=O)[C@@]12N=C(C)O[C@@H]1C[C@H]1[C@@H]3CCC4=CC(=O)C=C[C@]4(C)[C@H]3[C@@H](O)C[C@@]12C,Potency,[1],"inconclusive: 68.6 µM [activator, single point]"
same,Potency,[2]; [6],"inconclusive: 0.668 µM [inhibitor, single point]"
same,activation,[2]; [6],inconclusive: -24.6%
same,"activity change, negative = inhibition",[4],inconclusive: 9.42%
CC1CC(C)C(=O)C1=O (stereo not given),"activity change, negative = inhibition",[1],inconclusive: -2.49%
same,activation,[2]; [6],inconclusive: 4.3%
same,Potency,[3],inactive
CC(=O)CC(=O)Nc1ccccc1,"activity change, negative = inhibition",[1],inconclusive: 7.87%
same,Potency,[2]; [6],"inconclusive: 0.968 µM [inhibitor, single point]"
same,activation,[2]; [6],inconclusive: -51.9%
O=C(O)c1ccc(O)cc1O,Potency,[1],inactive
same,Potency,[2]; [6],inactive
CC(C)Nc1cccnc1N1CCN(C(=O)c2cc3cc(NS(C)(=O)=O)ccc3[nH]2)CC1,"activity change, negative = inhibition",[1],inconclusive: 2.39% [at 42.4 µM]
same,Potency,[2]; [6],"inconclusive: 0.298 µM [inhibitor, single point]"
same,Potency,[3],inconclusive: 7.5 µM
CCC(C)C1CCCCC1=O (stereo not given),Potency,[1],inactive
same,Potency,[2]; [6],inactive
O=C(O)C(=O)Cc1c[nH]c2ccccc12,"activity change, negative = inhibition",[1],inconclusive: 1.84%
same,Potency,[2]; [6],inactive
same,Potency,[3],inactive
CN(C)/N=N/c1nc[nH]c1C(N)=O,"activity change, negative = inhibition",[1],inconclusive: 26.1%
same,activation,[2]; [6],inconclusive: 4.96%
same,activation,[2]; at 42.5 µM (top of the series),inactive: 4.01%
O=c1cc[nH]c(=O)[nH]1,Potency,[1],inactive
same,Potency,[2]; [6],"inconclusive: 0.0434 µM [inhibitor, full curve, poor fit]"
same,activation,[2]; [6],inconclusive: 36.3% [at 42.5 µM]
CC(C)CCCC(C)CCO (stereo not given),Potency,[1],inactive
same,Potency,[3],inactive
Cc1cc(C(C)(C)C)c(O)c(C)c1CC1=NCCN1,Potency,[5],inactive

# In a second layout: results already given
smiles	measurement	setting	value
N=C(N)c1ccc(OCCCCCOc2ccc(C(=N)N)cc2)cc1	Potency	[2]; [6]	inconclusive: 0.0015 µM [inhibitor, full curve, poor fit]
O=C(O)c1cccc([N+](=O)[O-])c1	activation	[2]; [6]	inconclusive: 11.8%
O=C(O)c1ccc(O)cc1O	Potency	[2]; [6]	inactive
CCC(C)C1CCCCC1=O (stereo not given)	Potency	[2]; [6]	inactive
O=c1cc[nH]c(=O)[nH]1	activation	[2]; [6]	inconclusive: 36.3% [at 42.5 µM]
